No constants are given. Whether binding was seen depends on the method and setting. Binding seen in cells or lysates may run through a third protein. Some binding calls cover weakened binding; strength is not graded here.

Amino acid sequences for entries named in this document (tags omitted).
UniProt Q00987: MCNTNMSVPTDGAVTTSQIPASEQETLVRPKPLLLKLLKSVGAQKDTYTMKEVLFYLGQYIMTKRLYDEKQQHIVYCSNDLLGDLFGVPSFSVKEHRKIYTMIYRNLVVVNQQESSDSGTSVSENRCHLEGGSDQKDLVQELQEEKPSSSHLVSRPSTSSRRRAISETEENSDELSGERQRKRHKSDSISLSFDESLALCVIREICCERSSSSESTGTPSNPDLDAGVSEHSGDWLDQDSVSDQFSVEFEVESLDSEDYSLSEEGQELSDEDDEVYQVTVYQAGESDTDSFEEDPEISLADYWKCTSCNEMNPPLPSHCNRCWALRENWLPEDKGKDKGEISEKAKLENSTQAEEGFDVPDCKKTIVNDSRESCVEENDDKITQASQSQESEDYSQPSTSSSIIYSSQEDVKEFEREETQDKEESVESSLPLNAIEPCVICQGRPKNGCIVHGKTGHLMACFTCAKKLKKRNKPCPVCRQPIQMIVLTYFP

For the assay, the target named is T1, Livin (BIRC7) (human (endogenous in MDA-MB-231 and MCF-7)) (UniProt Q96CA5).
T1 sequence: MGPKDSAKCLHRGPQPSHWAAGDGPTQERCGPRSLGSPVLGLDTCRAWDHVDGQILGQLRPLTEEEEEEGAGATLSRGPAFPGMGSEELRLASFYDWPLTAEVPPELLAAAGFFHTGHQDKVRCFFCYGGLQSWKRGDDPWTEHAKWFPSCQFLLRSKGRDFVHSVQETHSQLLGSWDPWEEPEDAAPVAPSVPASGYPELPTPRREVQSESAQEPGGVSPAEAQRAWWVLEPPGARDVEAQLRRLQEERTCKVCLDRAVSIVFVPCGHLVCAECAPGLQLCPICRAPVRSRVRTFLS
The experiment in a line: co-IP; endogenous proteins, MCF-7 and MDA-MB-231 lysates.

Turning to “mouse double minute 2 homolog (MDM2) (from UniProt Q00987 1-491)”, the binding entry is “binds”.
